No constants are given. Whether binding was seen depends on the method and setting. Binding seen in cells or lysates may run through a third protein. Some binding calls cover weakened binding; strength is not graded here.
Assays:
[1] = target: Ras-GTPase-activating protein-binding protein 1 (bovine (endogenous in BAECs)) (UniProt Q32LC7); test: co-IP; endogenous proteins immunoprecipitated (1 µg antibody, 1 mg protein, overnight, protein A sepharose) from BAEC lysates, lysis buffer with 75 mM NaCl; immunoblot; non-immune IgG as control; cells treated or not with VEGF (40 ng/ml, 10 min), arsenite (500 µM, 30 min), MG132 or siZO-1
GST-ZO-1 (aa. 511-1100) = GST-ZO-1 (aa. 511-1100) (UniProt Q07157); test: pull-down; ~50 pM GST fusion protein prebound to glutathione agarose beads, incubated 4 h at 4 °C with 500 µg lysate of BAECs overexpressing myc-YB-1 (modified RIPA buffer, 110 mM NaCl); washed in 50 mM Tris-Cl pH 7.4, 125 mM NaCl; anti-myc immunoblot; only the target purified

Sequences of proteins named here, by UniProt entry; tags and fusion partners are left off. Residues count along the entry.
UniProt Q32LC7: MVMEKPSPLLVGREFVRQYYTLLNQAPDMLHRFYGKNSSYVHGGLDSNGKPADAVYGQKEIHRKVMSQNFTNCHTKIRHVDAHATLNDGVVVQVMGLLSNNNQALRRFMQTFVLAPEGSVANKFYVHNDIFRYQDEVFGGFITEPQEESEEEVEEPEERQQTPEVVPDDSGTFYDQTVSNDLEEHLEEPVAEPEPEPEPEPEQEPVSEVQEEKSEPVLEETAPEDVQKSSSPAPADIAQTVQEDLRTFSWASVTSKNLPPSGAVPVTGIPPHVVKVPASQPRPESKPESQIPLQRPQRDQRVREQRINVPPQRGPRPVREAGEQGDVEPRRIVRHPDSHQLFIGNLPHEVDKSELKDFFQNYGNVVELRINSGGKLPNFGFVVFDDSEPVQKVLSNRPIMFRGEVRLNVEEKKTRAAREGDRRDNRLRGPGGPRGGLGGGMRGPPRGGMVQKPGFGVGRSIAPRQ
UniProt Q07157, residues 511-1100: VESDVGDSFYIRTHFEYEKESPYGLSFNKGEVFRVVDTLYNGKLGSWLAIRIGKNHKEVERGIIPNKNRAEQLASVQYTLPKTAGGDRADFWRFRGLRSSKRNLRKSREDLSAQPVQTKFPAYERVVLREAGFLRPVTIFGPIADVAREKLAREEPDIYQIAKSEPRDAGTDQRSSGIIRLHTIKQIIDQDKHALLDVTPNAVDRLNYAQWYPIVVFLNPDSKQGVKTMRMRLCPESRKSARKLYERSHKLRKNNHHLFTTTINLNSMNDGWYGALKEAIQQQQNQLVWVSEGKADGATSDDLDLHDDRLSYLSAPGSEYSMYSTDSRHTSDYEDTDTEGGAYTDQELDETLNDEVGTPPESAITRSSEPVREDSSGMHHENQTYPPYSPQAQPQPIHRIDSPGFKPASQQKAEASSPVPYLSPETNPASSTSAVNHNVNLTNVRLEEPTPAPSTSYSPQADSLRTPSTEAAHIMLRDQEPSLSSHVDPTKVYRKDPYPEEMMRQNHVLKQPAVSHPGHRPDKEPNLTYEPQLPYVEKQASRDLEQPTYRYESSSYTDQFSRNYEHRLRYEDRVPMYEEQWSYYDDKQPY
UniProt P67808: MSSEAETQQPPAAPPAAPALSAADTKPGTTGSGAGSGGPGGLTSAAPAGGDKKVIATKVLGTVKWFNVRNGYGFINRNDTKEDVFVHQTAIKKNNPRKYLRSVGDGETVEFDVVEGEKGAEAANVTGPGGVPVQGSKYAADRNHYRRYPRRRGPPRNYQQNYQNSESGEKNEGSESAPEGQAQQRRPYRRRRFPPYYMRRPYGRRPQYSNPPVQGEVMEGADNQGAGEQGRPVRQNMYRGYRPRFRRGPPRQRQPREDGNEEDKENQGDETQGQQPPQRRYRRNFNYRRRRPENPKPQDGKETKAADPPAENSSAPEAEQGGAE
UniProt P67809: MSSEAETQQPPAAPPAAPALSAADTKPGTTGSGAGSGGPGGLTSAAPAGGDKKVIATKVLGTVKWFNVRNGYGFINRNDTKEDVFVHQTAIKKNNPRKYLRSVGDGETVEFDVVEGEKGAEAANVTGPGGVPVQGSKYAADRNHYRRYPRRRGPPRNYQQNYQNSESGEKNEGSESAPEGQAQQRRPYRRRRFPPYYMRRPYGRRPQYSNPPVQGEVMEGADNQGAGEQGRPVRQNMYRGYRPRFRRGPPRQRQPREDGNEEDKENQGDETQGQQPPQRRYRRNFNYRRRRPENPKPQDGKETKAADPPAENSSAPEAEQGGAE

binding [1]	binding (GST-ZO-1 (aa. 511-1100))	Substance
binds	–	Y-box binding protein 1 (from UniProt P67808 1-324)
–	binds	myc-tagged YB-1 (from UniProt P67809 1-324)
